Assay results as given in publication PMC9045254.

Key:
[1] = test system: MBP-BrpABI449 (Brassica parachinensis); assay: EMSA; details: EMSA/Gel-Shift kit (Beyotime) per manufacturer; pH and temperature not stated; recombinant protein; protein details: MBP (pMAL c5x)
[2] = test system: MBP-BrpNAC895 (Brassica parachinensis); assay: EMSA; details: EMSA/Gel-Shift kit (Beyotime) per manufacturer, pH and temperature not stated, recombinant protein, protein details: MBP (pMAL c5x)

| Sequence | binding result [1] | binding result [2] | binding result ([2]; preincubated with increasing MBP-BrpABI449, 6 h at 4 C) |
| --- | --- | --- | --- |
| CATATCTTCGACACGTTACGTGCATTTCCCCAAGACAT (double strand) [BrpHMA2 promoter probe 3 (pF3 locus)] | binds | binds |  |
| GCTAGCACCTTCAGTAATGCACGTTAATAGACTTTTGGTT (double strand) [BrpHMA2 promoter probe 1 (pF1 locus)] | no binding | binds | binds more weakly |
| TATGCCTGCCTAAAACCGTGACCCATCGAACAAGTTCTCT (double strand) [BrpHMA2 promoter probe 2 (pF2 locus)] | binds | binds |  |

The exact form of at least one protein or probe is not confirmed. For some of these results: Negatives hold for the conditions tested. For some of these results: A weaker result is weaker than the reference pair of the same experiment.
